No constants are given. Whether binding was seen depends on the method and setting. Binding seen in cells or lysates may run through a third protein. Tags and fused reporters may be left off the sequences shown.
Molecular target: T1, GST fusion of domain 3 of generic RON2 (amino acids 1293-1345) (Toxoplasma gondii) (UniProt B6KV60)
T1 sequence: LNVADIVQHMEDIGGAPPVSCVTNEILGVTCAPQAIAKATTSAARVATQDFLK
Test: pull-down; Glutathione-sepharose beads prebound with 0.5 µM GST, GST-gD3 or GST-sD3 were added to cleared NP-40 lysate of tachyzoites (10 mM Tris-HCl pH 8.0, 150 mM NaCl, 1 mM EDTA, 0.1% NP-40). Rotated at room temperature for about two hours, washed three times, then immunoblotted; only the target purified

“full-length sporoAMA1 with a C-terminal HA tag (Toxoplasma gondii)” was tested, and the binding was “no binding (tested: 0.5 µM GST fusion prebound to beads)”.

From publication PMC3734201
